According to publication PMC10620772, “Design, synthesis, and biological evaluation of new pyrimidine-5-carbonitrile derivatives as novel anti-cancer, dual EGFR^WT/COX-2 inhibitors with docking studies” (RSC Advances, 2023):

Experiment: in vitro
Conditions: human
Experimental: Further perspectives of their mechanisms of action were carried.
The preliminary in vitro antitumor investigation of our novel potential anticancer candidates was carried out by NCI, MD, USA (www.dtp.nci.nih.gov). […] Moreover, the safety profile of 4e & 4f at normal cells were evaluated.

## CN[C@@H]1C[C@H]2O[C@@](C)([C@@H]1OC)n1c3ccccc3c3c4c(c5c6ccccc6n2c5c31)C(=O)NC4 [Staurosporine, reference compound]
  IC50: 23 µM
